These are yes or no findings as the source states them, for the method shown. Sequences can lack the tags named with a protein.
How the values were obtained:
[1] = target: TPR domain of AtToc64 with a C-terminal hexa-histidine tag (AtToc64_TPR-H6) (Arabidopsis thaliana) (UniProt Q9LVH5); assay: SEC; Superdex 75 prep grade, 25 mM Hepes, 100 mM KCl, pH 7.3; 2 mL of protein at 8 mg/mL; calibrated with gel filtration standards; both purified
[2] = target: TPR domain of AtToc64 with a C-terminal hexa-histidine tag (AtToc64_TPR-H6) (Arabidopsis thaliana) (UniProt Q9LVH5); assay: AUC; sedimentation velocity, 70 µM protein alone (also with the Hsp70 or Hsp90 octapeptide), 25 mM Hepes, 100 mM KCl, pH 7.3, 20°C, 60,000 rpm, c(s) analysis in SEDFIT; both purified

binding [1]: no binding (tested: 8 mg/mL applied)
binding [2]: no binding (tested: 70 µM)
B1: TPR domain of AtToc64 with a C-terminal hexa-histidine tag (AtToc64_TPR-H6) (domain or fragment, UniProt Q9LVH5 474-589)
chain: AEIAKEKGNQAFKEKLWQKAIGLYSEAIKLSDNNATYYSNRAAAYLELGGFLQAEEDCTKAITLDKKNVKAYLRRGTAREMLGDCKGAIEDFRYALVLEPNNKRASLSAERLRKFQ

From PMC3877065, “Ligand Recognition by the TPR Domain of the Import Factor Toc64 from Arabidopsis thaliana” (PLoS ONE, 2013)
